{"source": "the supplement of paper PMC9135407", "tested_on": "primary human hepatic stellate cells (donor 1)", "test": "percent Bodipy-positive cells; higher = more lipid droplet accumulation", "settings": "48 h", "key": {"[1]": {"settings": "library stock concentration: 10 mM"}, "[2]": {"settings": "library stock concentration: 3.33 mM"}, "[3]": {"settings": "library stock concentration: 1 mM"}, "[4]": {"settings": "library stock concentration: 80 uM"}, "[5]": {"settings": "library stock concentration: 400 uM"}, "[6]": {"settings": "library stock concentration: 2 mM"}}, "note": "Several values for one entry are separate records, joined by “and”; a condition that tells them apart may be missing. Identical values can stand only once. Counter-ions that a name gives are not always drawn. ± gives the standard deviation of the averaged measurements. Some of the results follow. Plates or batches differ in their baseline, so values are only roughly comparable.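 Culture-activated primary human stellate myofibroblasts, where regained lipid droplets signal inactivation. Value: share of Hoechst-counted cells above a per-plate Bodipy cutoff, in duplicate wells, with DMSO negative and nortriptyline positive controls on each plate. Hits: a control-normalized score above the plate's top-tenth-percentile nortriptyline wells, or one of a plate's three best wells. Final well concentrations are not given.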"}
{"compound": "CN[C@@H]1[C@@H](O)[C@@H](O[C@@H]2[C@@H](O)[C@H](O[C@H]3OC(CN)=CC[C@H]3N)[C@@H](N)C[C@H]2N)OC[C@]1(C)O", "note": "[Sisomicin sulfate]", "values": [{"measurement": "percent Bodipy-positive cells", "result": "40.9 ± 15", "unit": "%"}, {"measurement": "percent Bodipy-positive cells", "setting": "[1]", "result": "13.4 ± 4.6", "unit": "%"}]}
{"compound": "Cc1cc(NS(=O)(=O)c2ccc(N)cc2)no1", "note": "[Sulfamethoxazole]", "values": [{"measurement": "percent Bodipy-positive cells", "result": "31.5 ± 4.1", "unit": "%"}, {"measurement": "percent Bodipy-positive cells", "setting": "[2]", "result": "6.08 ± 1.6", "unit": "%"}, {"measurement": "percent Bodipy-positive cells", "setting": "library stock concentration: 7.9 mM", "result": "12 ± 3.5", "unit": "%"}, {"measurement": "percent Bodipy-positive cells", "setting": "[1]", "result": "13.1% and 30.5%"}]}
{"compound": "CCCCCCCCC=CCCCCCCCCOCCOP(=O)([O-])OCC[N+](C)(C)C", "note": "[Oleyloxyethyl Phosphorylcholine]", "values": [{"measurement": "percent Bodipy-positive cells", "setting": "[3]", "result": "11.2 ± 1.1", "unit": "%"}]}
{"compound": "COc1cc(C(=O)OCCCN2CCCN(CCCOC(=O)c3cc(OC)c(OC)c(OC)c3)CC2)cc(OC)c1OC.Cl.Cl", "note": "[Dilazep dihydrochloride]", "values": [{"measurement": "percent Bodipy-positive cells", "setting": "[1]", "result": "68.32 ± 0.15", "unit": "%"}]}
{"compound": "O=C(c1ccc2c(c1)OCCO2)N1CCCCC1", "values": [{"measurement": "percent Bodipy-positive cells", "setting": "[1]", "result": "51.5 ± 10", "unit": "%"}]}
{"compound": "CC1(C)S[C@@H]2[C@H](NC(=O)[C@H](C(=O)O)c3ccsc3)C(=O)N2[C@H]1C(=O)O", "values": [{"measurement": "percent Bodipy-positive cells", "setting": "[1]", "result": "33.9 ± 6.7", "unit": "%"}]}
{"compound": "CC1(C)S[C@@H]2[C@H](NC(=O)[C@H](C(=O)O)c3ccsc3)C(=O)N2[C@H]1C(=O)O", "note": "[Ticarcillin sodium]", "values": [{"measurement": "percent Bodipy-positive cells", "result": "11.8 ± 1.3", "unit": "%"}, {"measurement": "percent Bodipy-positive cells", "setting": "[2]", "result": "12.6 ± 4.3", "unit": "%"}, {"measurement": "percent Bodipy-positive cells", "setting": "[1]", "result": "25.8 ± 0.63", "unit": "%"}]}
{"compound": "COc1c/c(=C2\\C=c3ccccc3=N2)[nH]/c1=C\\c1[nH]c(C)cc1C", "note": "[Obatoclax Mesylate (GX15-070)]", "values": [{"measurement": "percent Bodipy-positive cells", "setting": "[2]", "result": 100, "unit": "%"}, {"measurement": "percent Bodipy-positive cells", "setting": "[1]", "result": "99.41 ± 0.83", "unit": "%"}]}
{"compound": "COc1cc(O)c2c(c1)C(=O)c1cc(C)cc(O)c1C2=O", "note": "[Rheochrysidin]", "values": [{"measurement": "percent Bodipy-positive cells", "setting": "[2]", "result": "10.9 ± 0.63", "unit": "%"}, {"measurement": "percent Bodipy-positive cells", "setting": "[1]", "result": "14.6 ± 0.24", "unit": "%"}]}
{"compound": "CC(C)[C@H]1c2ccc(F)cc2CC[C@@]1(CCN(C)CCCc1nc2ccccc2[nH]1)OC(=O)C1CC1", "note": "[NNC 55-0396 dihydrochloride]", "values": [{"measurement": "percent Bodipy-positive cells", "setting": "[1]", "result": 100, "unit": "%"}]}
{"compound": "CC(C)[C@H]1c2ccc(F)cc2CC[C@@]1(CCN(C)CCCc1nc2ccccc2[nH]1)OC(=O)C1CC1", "values": [{"measurement": "percent Bodipy-positive cells", "setting": "[1]", "result": "93.9 ± 8.6", "unit": "%"}]}
{"compound": "CCOC(=O)n1ccn(C)c1=S", "note": "[Carbimazole]", "values": [{"measurement": "percent Bodipy-positive cells", "result": "22.5 ± 4.8", "unit": "%"}, {"measurement": "percent Bodipy-positive cells", "setting": "[2]", "result": "10.9 ± 0.41", "unit": "%"}]}
{"compound": "CC1(O)CCC(C(C)(C)O)CC1", "note": "(configuration not stated)", "values": [{"measurement": "percent Bodipy-positive cells", "setting": "[1]", "result": "27.7 ± 2.5", "unit": "%"}]}
{"compound": "COc1cc(N2CCC(N)CC2)ccc1Nc1ncc(Cl)c(-c2c[nH]c3ccccc23)n1", "values": [{"measurement": "percent Bodipy-positive cells", "setting": "[2]", "result": "79.1 ± 2.4", "unit": "%"}, {"measurement": "percent Bodipy-positive cells", "setting": "[1]", "result": "98.9 ± 1.5", "unit": "%"}]}
{"compound": "CN1CCN2c3ccccc3Cc3ccccc3C2C1.Cl", "note": "(configuration not stated) [Mianserin hydrochloride]", "values": [{"measurement": "percent Bodipy-positive cells", "setting": "[1]", "result": "88.7 ± 2.9", "unit": "%"}]}
{"compound": "CCC(=O)Oc1ccc2c(c1)CC[C@@H]1[C@@H]2CC[C@]2(C)[C@@H](OC(=O)CC)CC[C@@H]12", "values": [{"measurement": "percent Bodipy-positive cells", "setting": "[1]", "result": "32.2 ± 14", "unit": "%"}]}
{"compound": "COc1cc2ncnc(N3CCN(C(=O)Nc4ccc(Oc5ccccc5)cc4)CC3)c2cc1OC", "note": "[PDGF Receptor Tyrosine Kinase Inhibitor III]", "values": [{"measurement": "percent Bodipy-positive cells", "setting": "[2]", "result": "16.7 ± 1.6", "unit": "%"}]}
{"compound": "COc1cc2ncnc(N3CCN(C(=O)Nc4ccc(Oc5ccccc5)cc4)CC3)c2cc1OC", "values": [{"measurement": "percent Bodipy-positive cells", "setting": "[4]", "result": "10.2 ± 3.8", "unit": "%"}, {"measurement": "percent Bodipy-positive cells", "setting": "[5]", "result": "7.39 ± 2.2", "unit": "%"}, {"measurement": "percent Bodipy-positive cells", "setting": "[6]", "result": "9.75 ± 2.6", "unit": "%"}, {"measurement": "percent Bodipy-positive cells", "setting": "[1]", "result": "10.5 ± 2.4", "unit": "%"}]}
{"compound": "CC(C)OC(=O)CCC/C=C\\C[C@@H]1[C@@H](/C=C/[C@@H](O)COc2cccc(C(F)(F)F)c2)[C@H](O)C[C@@H]1O", "values": [{"measurement": "percent Bodipy-positive cells", "setting": "[1]", "result": "24.2 ± 8", "unit": "%"}]}
{"compound": "O=C1CN(/N=C/c2ccc(-c3ccc([N+](=O)[O-])cc3)o2)C(=O)N1", "note": "[Dantrolene sodium]", "values": [{"measurement": "percent Bodipy-positive cells", "setting": "library stock concentration: 5.9 mM", "result": "27.6 ± 15", "unit": "%"}, {"measurement": "percent Bodipy-positive cells", "setting": "[1]", "result": "51.9 ± 22", "unit": "%"}]}
{"compound": "O=C1CN(/N=C/c2ccc(-c3ccc([N+](=O)[O-])cc3)o2)C(=O)N1", "note": "[Dantrolene sodium salt]", "values": [{"measurement": "percent Bodipy-positive cells", "result": "44.8 ± 5.1", "unit": "%"}]}
{"compound": "O=C1CN(/N=C/c2ccc(-c3ccc([N+](=O)[O-])cc3)o2)C(=O)N1", "note": "[Dantrolene, sodium salt]", "values": [{"measurement": "percent Bodipy-positive cells", "setting": "[1]", "result": "4.12 ± 2.7", "unit": "%"}]}
{"compound": "O=C1CN(/N=C/c2ccc(-c3ccc([N+](=O)[O-])cc3)o2)C(=O)N1", "note": "[Dantrolene?Sodium]", "values": [{"measurement": "percent Bodipy-positive cells", "setting": "[1]", "result": "34.7 ± 6.5", "unit": "%"}]}
{"compound": "Nc1[nH]nc2nnc(-c3c(-c4ccccc4)nn4ccccc34)cc12", "values": [{"measurement": "percent Bodipy-positive cells", "setting": "[4]", "result": "8.11 ± 0.56", "unit": "%"}, {"measurement": "percent Bodipy-positive cells", "setting": "[5]", "result": "7.356 ± 0.054", "unit": "%"}, {"measurement": "percent Bodipy-positive cells", "setting": "[6]", "result": "10.5 ± 4", "unit": "%"}, {"measurement": "percent Bodipy-positive cells", "setting": "[2]", "result": "8.77 ± 2.8", "unit": "%"}, {"measurement": "percent Bodipy-positive cells", "setting": "[1]", "result": "11.5% and 4.78%"}]}
{"compound": "CC(C)(F)C[C@H](N[C@@H](c1ccc(-c2ccc(S(C)(=O)=O)cc2)cc1)C(F)(F)F)C(=O)NC1(C#N)CC1", "note": "[Odanacatib (MK-0822)]", "values": [{"measurement": "percent Bodipy-positive cells", "setting": "[2]", "result": "14 ± 7", "unit": "%"}, {"measurement": "percent Bodipy-positive cells", "setting": "[1]", "result": "22.6 ± 3.4", "unit": "%"}]}
{"compound": "CC(C)OC(=O)CCC/C=C\\C[C@@H]1[C@@H](CC[C@@H](O)CCc2ccccc2)[C@H](O)C[C@@H]1O", "note": "[Latanoprost (free acid)]", "values": [{"measurement": "percent Bodipy-positive cells", "setting": "[3]", "result": "15.8 ± 2.1", "unit": "%"}]}
{"compound": "Cl.O=C(CCCN1CCC(O)(c2cccc(C(F)(F)F)c2)CC1)c1ccc(F)cc1", "note": "[Trifluperidol hydrochloride]", "values": [{"measurement": "percent Bodipy-positive cells", "setting": "[1]", "result": "88.2 ± 2.8", "unit": "%"}]}
{"compound": "CN(C)CCCN1c2ccccc2CCc2ccc(Cl)cc21.Cl", "note": "[Clomipramine hydrochloride]", "values": [{"measurement": "percent Bodipy-positive cells", "setting": "[1]", "result": "94.18 ± 0.51", "unit": "%"}]}
{"compound": "CCCCCCCCCCCCCCC[C@@H](O)[C@@H](N)CO", "note": "[Dihydrosphingosine]", "values": [{"measurement": "percent Bodipy-positive cells", "setting": "[3]", "result": "6.08 ± 2.5", "unit": "%"}]}
{"compound": "C[n+]1cccc(C(=O)[O-])c1", "note": "[Trigonelline]", "values": [{"measurement": "percent Bodipy-positive cells", "result": "31.9 ± 9.2", "unit": "%"}]}
{"compound": "COc1cc(C)c(/C=C/C(C)=C/C=C/C(C)=C/C(=O)O)c(C)c1C", "note": "[Acitretin]", "values": [{"measurement": "percent Bodipy-positive cells", "setting": "[2]", "result": "6.24 ± 1.1", "unit": "%"}, {"measurement": "percent Bodipy-positive cells", "setting": "[1]", "result": "8.31 ± 3.8", "unit": "%"}]}
{"compound": "CNCCC(Oc1ccc(C(F)(F)F)cc1)c1ccccc1.Cl", "note": "(configuration not stated) [Fluoxetine hydrochloride]", "values": [{"measurement": "percent Bodipy-positive cells", "result": "94.2 ± 2.6", "unit": "%"}]}
{"compound": "O=c1[nH]c(=O)n([C@H]2C[C@H](O)[C@@H](CO)O2)cc1F", "note": "[Floxuridine]", "values": [{"measurement": "percent Bodipy-positive cells", "setting": "[2]", "result": "11.7 ± 1.8", "unit": "%"}, {"measurement": "percent Bodipy-positive cells", "setting": "library stock concentration: 8.1 mM", "result": "8.79% and 24.1%"}, {"measurement": "percent Bodipy-positive cells", "setting": "[1]", "result": "22.8% and 47.2% and 42.4%"}]}
{"compound": "Nc1ccc(C(=O)Oc2ccccc2)c(O)c1", "note": "[Phenyl aminosalicylate]", "values": [{"measurement": "percent Bodipy-positive cells", "setting": "library stock concentration: 8.7 mM", "result": "9.07 ± 2.4", "unit": "%"}]}
{"compound": "CC(C)CC(NC(=O)OCC1c2ccccc2-c2ccccc21)C(=O)O", "note": "(configuration not stated)", "values": [{"measurement": "percent Bodipy-positive cells", "setting": "[1]", "result": "6.38 ± 0.5", "unit": "%"}]}
